Results taken from paper PMC7707522.
Results are given in words; binding and its absence hold for the method and conditions named. In cells and extracts the contact can be indirect. Here binding means that the protein was enriched with, or labelled near, the bait; the list need not be complete.

Protein sequences, listed by entry. Tags and fused reporters are not part of them.
UniProt P03146: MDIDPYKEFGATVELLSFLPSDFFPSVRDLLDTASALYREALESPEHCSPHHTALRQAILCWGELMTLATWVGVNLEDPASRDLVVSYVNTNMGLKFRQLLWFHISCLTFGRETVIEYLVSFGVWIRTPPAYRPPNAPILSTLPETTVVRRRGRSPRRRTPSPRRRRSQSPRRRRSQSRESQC
UniProt P38159: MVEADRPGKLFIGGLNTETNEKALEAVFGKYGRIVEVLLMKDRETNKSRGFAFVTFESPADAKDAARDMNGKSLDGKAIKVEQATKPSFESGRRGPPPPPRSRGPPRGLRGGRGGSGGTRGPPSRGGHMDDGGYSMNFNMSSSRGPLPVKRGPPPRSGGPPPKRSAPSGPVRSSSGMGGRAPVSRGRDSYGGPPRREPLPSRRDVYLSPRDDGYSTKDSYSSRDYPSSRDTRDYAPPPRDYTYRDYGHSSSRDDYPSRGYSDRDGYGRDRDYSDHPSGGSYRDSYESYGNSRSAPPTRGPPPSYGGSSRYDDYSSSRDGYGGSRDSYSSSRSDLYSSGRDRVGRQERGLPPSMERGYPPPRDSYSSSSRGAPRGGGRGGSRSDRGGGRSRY
UniProt Q07955: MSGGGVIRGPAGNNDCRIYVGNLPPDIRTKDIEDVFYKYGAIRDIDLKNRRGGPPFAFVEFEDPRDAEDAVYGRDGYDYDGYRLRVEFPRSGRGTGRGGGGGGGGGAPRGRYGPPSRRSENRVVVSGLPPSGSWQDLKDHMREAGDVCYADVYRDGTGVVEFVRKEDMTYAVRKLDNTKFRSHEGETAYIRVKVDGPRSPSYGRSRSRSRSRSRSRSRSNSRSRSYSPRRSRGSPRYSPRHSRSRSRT
UniProt P62995: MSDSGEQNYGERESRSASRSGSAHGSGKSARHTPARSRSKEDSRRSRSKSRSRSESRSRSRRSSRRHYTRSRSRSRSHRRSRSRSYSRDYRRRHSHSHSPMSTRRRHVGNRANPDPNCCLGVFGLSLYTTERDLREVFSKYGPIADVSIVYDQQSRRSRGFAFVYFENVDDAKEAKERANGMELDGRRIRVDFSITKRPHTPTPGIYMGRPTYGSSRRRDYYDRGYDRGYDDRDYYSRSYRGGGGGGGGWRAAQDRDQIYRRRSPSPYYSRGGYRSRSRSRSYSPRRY

Molecular target: HBV core protein (HBc) fused at its N-terminus to a streptavidin (ST)-binding peptide (Hepatitis B virus) (UniProt P03146)
Assay: affinity purification with mass spectrometry; ST-HBc complexes purified from nuclear extracts of dHepaRG-TR-ST-HBc cells on Strep-Tactin gravity columns, eluted with desthiobiotin; extracts with or without Benzonase digestion (40 min on ice); control: cells with untagged wt HBc; label-free quantitative MS, three purifications for each …

Molecule	binding
RBMX (from UniProt P38159 1-391)	binds
SRSF1 (from UniProt Q07955 1-248)	binds
TRA2B (from UniProt P62995 1-288)	binds
SRSF5 (protein, UniProt Q13243 1-272) MSGCRVFIGRLNPAAREKDVERFFKGYGRIRDIDLKRGFGFVEFEDPRDADDAVYELDGKELCSERVTIEHARARSRGGRGRGRYSDRFSSRRPRNDRRNAPPVRTENRLIVENLSSRVSWQDLKDFMRQAGEVTFADAHRPKLNEGVVEFASYGDLKNAIEKLSGKEINGRKIKLIEGSKRHSRSRSRSRSRTRSSSRSRSRSRSRSRKSYSRSRSRSRSRSRSKSRSVSRSPVPEKSQKRGSSSRSKSPASVDRQRSRSRSRSRSVDSGN	binds
